Values from PubChem BioAssay AID1259254 (NCATS, 2017)
This is an unselected part of about 59,000 reagents. About 1,550 of them (2.6%) count as active. 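G2 share is only a proxy for re-replication; each gene was hit by three separate siRNAs, and active genes were retested.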 The raw values are shown without normalisation. A number with no mark means an inactive call. Reagents against one gene are numbered here. No sequences are given here. Not stated in the record: the amount of reagent.

Assay: 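Finding genes that stop cells copying their DNA twice in one cycle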 (primary screen)
System: human HCT116 colorectal cancer cells
Reagents: single siRNA against human genes
Timing: 3 days
Read-out: 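Nuclei stained with Hoechst and imaged; cell-cycle phase assigned by DNA content; G2 share scaled per plate, non-targeting siRNA 0%, GMNN siRNA 100%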
Reading the numbers: G2 robust z-score and G2 cells, % of GMNN control: higher = more G2 cells, more excess DNA replication; raw share of cells in G2: higher = larger share of cells with G2 DNA content
Rule for the call: 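Active siRNAs have a G2 robust z of 5 or more median absolute deviations over the median, which in these data means about 38% or higher of GMNN control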

Target gene | reagent no. | G2 robust z-score | G2 cells, % of GMNN control | raw share of cells in G2 (%)
GLMN | 1 | -0.409 | 0.0908 | 3.9
GLMN | 2 | 0.247 | 4.7 | 5.73
GLMN | 3 | 3.33 | 26.4 | 17
FKBPL | 1 | -0.267 | 1.09 | 4.62
FKBPL | 2 | 3.93 | 30.6 | 15.2
FKBPL | 3 | 2.91 | 23.4 | 15.3
COMT | 1 | -1.07 | -4.54 | 4.18
COMT | 2 | 2.06 | 17.4 | 11.5
COMT | 3 | -0.421 | 0.00584 | 3.68
GPR6 | 1 | -0.275 | 1.04 | 6.21
GPR6 | 2 | 2.87 | 23.2 | 12.6
GPR6 | 3 | 6.7 (active) | 50.1 | 18.6
CATSPERB | 1 | -1.27 | -6 | 1.95
CATSPERB | 2 | 4.4 | 33.9 | 19.1
CATSPERB | 3 | -0.734 | -2.2 | 1.78
TMPRSS13 | 1 | -0.794 | -2.62 | 4.49
TMPRSS13 | 2 | 2.67 | 21.7 | 11.6
TMPRSS13 | 3 | -0.355 | 0.472 | 4.44
DIS3L | 1 | 0.302 | 5.1 | 8.04
DIS3L | 2 | 0.191 | 4.31 | 6.11
DIS3L | 3 | -0.348 | 0.52 | 5.19
B3GAT3 | 1 | 3.28 | 26 | 18
B3GAT3 | 2 | 0.663 | 7.63 | 6.72
B3GAT3 | 3 | 10.2 (active) | 74.9 | 28.5
ZNF445 | 1 | 0.898 | 9.29 | 6.29
ZNF445 | 2 | 4.07 | 31.6 | 14.1
ZNF445 | 3 | 6.08 (active) | 45.8 | 19.6
LOC648570 (retired record) | 1 | 0.486 | 6.39 | 5.07
LOC648570 (retired record) | 2 | -0.555 | -0.937 | 3.42
LOC648570 (retired record) | 3 | -1.01 | -4.15 | 1.69

Called active, among the entries above:
Target gene | reagent no. | G2 robust z-score | G2 cells, % of GMNN control | raw share of cells in G2 (%)
GPR6 | 3 | 6.7 (active) | 50.1 | 18.6
B3GAT3 | 3 | 10.2 (active) | 74.9 | 28.5
ZNF445 | 3 | 6.08 (active) | 45.8 | 19.6
